Measurements published in PMC8801937.
No constants are given. Whether binding was seen depends on the method and setting. Binding seen in cells or lysates may run through a third protein. Some entries that bind do so weakly or less than the wild type. For part of these data: Where a sequence is shown, tags or fusion partners need not be part of it.

T1: Flag-tagged USP36 wild type (UniProt Q9P275)
T1 sequence: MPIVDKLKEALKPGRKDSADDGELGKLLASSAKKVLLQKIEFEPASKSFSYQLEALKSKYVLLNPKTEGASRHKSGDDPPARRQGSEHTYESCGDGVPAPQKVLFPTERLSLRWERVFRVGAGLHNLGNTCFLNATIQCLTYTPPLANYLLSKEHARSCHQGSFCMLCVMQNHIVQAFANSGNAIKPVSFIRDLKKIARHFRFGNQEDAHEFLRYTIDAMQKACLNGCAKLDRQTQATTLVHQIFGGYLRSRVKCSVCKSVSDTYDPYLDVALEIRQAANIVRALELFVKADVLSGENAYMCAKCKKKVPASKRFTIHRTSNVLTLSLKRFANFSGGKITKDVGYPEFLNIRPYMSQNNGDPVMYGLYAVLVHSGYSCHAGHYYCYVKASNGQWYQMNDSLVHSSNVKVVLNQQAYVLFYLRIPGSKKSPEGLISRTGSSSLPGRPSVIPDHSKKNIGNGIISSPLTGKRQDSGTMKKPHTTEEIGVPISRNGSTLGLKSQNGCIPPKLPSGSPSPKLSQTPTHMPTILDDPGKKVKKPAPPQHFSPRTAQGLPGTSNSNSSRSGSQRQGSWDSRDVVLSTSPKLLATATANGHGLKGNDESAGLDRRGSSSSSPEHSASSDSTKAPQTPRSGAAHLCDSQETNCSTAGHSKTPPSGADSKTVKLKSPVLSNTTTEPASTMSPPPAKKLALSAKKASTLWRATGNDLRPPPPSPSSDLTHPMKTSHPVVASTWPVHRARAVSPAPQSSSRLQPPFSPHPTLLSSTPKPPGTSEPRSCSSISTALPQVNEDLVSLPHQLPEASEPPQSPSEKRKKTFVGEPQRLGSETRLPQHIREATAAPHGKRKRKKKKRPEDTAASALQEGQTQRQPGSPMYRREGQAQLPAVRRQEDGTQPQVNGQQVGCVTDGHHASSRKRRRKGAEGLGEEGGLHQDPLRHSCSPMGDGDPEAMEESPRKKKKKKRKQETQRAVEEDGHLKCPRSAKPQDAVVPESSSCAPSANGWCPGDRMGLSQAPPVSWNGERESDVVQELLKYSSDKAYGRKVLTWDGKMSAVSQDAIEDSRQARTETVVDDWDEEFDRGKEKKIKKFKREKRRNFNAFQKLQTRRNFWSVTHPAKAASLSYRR

T2: Flag-tagged USP36 C131A (catalytically-inactive mutant) (UniProt Q9P275)
T2 sequence: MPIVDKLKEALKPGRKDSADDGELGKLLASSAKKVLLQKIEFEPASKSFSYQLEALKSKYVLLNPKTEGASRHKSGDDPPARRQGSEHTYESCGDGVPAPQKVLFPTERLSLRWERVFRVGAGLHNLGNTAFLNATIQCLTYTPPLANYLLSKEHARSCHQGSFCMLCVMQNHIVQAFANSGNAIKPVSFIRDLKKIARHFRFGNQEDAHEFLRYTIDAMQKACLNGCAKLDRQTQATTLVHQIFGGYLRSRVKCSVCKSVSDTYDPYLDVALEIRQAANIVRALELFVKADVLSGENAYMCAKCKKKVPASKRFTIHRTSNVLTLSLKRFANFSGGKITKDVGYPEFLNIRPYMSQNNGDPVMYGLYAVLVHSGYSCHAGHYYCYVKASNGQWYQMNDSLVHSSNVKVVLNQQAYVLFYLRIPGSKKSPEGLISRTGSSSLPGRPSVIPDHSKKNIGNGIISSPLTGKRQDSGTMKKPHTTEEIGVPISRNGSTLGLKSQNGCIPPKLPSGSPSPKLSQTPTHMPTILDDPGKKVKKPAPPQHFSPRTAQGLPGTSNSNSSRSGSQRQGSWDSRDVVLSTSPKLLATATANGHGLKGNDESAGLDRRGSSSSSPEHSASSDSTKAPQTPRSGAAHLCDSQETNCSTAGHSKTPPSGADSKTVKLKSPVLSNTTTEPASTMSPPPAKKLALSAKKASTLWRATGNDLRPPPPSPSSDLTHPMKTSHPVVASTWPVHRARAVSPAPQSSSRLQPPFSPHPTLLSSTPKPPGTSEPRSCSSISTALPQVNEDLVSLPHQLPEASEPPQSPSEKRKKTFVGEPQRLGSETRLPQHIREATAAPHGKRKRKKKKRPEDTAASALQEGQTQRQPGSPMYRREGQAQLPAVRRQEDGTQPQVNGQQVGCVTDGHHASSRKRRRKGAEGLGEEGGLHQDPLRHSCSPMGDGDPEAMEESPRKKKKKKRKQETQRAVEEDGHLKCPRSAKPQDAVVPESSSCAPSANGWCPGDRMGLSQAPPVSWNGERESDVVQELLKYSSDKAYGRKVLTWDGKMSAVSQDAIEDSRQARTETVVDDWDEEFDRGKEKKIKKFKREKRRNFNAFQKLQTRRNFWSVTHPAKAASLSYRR

T3: endogenous USP36 (human (endogenous in U87MG and U251)) (UniProt Q9P275)
T3 sequence: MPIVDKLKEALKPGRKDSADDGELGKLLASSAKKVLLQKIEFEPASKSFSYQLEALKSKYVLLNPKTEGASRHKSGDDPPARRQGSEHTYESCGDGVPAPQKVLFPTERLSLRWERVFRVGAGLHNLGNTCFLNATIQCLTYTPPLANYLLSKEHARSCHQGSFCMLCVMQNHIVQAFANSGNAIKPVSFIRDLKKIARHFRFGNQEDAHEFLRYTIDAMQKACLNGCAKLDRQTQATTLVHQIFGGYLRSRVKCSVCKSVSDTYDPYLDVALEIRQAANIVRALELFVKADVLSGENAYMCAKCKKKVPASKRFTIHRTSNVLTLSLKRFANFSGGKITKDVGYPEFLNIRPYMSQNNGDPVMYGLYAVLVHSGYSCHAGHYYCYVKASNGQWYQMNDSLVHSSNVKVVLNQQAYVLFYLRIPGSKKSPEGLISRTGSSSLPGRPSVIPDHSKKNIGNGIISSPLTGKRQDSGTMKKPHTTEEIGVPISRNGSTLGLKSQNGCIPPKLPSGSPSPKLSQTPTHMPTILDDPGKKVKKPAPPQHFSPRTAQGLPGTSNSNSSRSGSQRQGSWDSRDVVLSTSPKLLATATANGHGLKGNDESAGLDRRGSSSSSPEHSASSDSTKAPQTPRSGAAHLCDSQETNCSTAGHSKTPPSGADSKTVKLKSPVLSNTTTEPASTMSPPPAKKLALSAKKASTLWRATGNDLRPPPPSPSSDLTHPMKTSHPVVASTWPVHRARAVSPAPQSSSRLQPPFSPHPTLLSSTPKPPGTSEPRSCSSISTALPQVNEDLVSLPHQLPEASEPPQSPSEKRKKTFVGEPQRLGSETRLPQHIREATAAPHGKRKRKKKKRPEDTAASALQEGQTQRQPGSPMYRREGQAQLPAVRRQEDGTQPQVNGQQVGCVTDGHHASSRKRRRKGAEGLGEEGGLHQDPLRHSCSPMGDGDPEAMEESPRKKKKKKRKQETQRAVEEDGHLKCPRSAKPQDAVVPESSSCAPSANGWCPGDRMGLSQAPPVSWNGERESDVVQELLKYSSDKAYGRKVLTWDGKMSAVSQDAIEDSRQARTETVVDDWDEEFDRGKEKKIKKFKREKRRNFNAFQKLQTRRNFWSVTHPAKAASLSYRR


Tests used:
[1] = target: T1, Flag-tagged USP36 wild type; experiment: co-IP; HEK293T cells co-transfected with His-Snail2 with or without Flag-USP36 WT or C131A; lysed in NETN buffer, precipitated by anti-Flag overnight at 4°C, Western blot
[2] = target: T2, Flag-tagged USP36 C131A (catalytically-inactive mutant); experiment: as above
[3] = target: T3, endogenous USP36 (human (endogenous in U87MG and U251)); experiment: co-IP; reciprocal co-immunoprecipitation of the endogenous proteins from U87MG and U251 lysates; NETN buffer, overnight at 4°C, Western blot

| binding [1] | binding [2] | binding [3] | Binder |
| --- | --- | --- | --- |
| binds | binds | – | His-tagged Snail2 (protein, UniProt O43623 1-268) MPRSFLVKKHFNASKKPNYSELDTHTVIISPYLYESYSMPVIPQPEILSSGAYSPITVWTTAAPFHAQLPNGLSPLSGYSSSLGRVSPPPPSDTSSKDHSGSESPISDEEERLQSKLSDPHAIEAEKFQCNLCNKTYSTFSGLAKHKQLHCDAQSRKSFSCKYCDKEYVSLGALKMHIRTHTLPCVCKICGKAFSRPWLLQGHIRTHTGEKPFSCPHCNRAFADRSNLRAHLQTHSDVKKYQCKNCSKTFSRMSLLHKHEESGCCVAH |
| – | – | binds | endogenous Snail2 (protein, UniProt O43623 1-268) MPRSFLVKKHFNASKKPNYSELDTHTVIISPYLYESYSMPVIPQPEILSSGAYSPITVWTTAAPFHAQLPNGLSPLSGYSSSLGRVSPPPPSDTSSKDHSGSESPISDEEERLQSKLSDPHAIEAEKFQCNLCNKTYSTFSGLAKHKQLHCDAQSRKSFSCKYCDKEYVSLGALKMHIRTHTLPCVCKICGKAFSRPWLLQGHIRTHTGEKPFSCPHCNRAFADRSNLRAHLQTHSDVKKYQCKNCSKTFSRMSLLHKHEESGCCVAH |
